Assay results as given in paper PMC12134299.
These are yes or no findings as the source states them, for the method shown. In cells and extracts the contact can be indirect. Some results given as binding are weak or reduced against the parent protein; the word gives no strength.

The chains behind the UniProt entries cited, without tags or fusion partners. Where a name states a change or a piece, a line headed by the entry shows the natural chain unless it says otherwise.
UniProt Q16665: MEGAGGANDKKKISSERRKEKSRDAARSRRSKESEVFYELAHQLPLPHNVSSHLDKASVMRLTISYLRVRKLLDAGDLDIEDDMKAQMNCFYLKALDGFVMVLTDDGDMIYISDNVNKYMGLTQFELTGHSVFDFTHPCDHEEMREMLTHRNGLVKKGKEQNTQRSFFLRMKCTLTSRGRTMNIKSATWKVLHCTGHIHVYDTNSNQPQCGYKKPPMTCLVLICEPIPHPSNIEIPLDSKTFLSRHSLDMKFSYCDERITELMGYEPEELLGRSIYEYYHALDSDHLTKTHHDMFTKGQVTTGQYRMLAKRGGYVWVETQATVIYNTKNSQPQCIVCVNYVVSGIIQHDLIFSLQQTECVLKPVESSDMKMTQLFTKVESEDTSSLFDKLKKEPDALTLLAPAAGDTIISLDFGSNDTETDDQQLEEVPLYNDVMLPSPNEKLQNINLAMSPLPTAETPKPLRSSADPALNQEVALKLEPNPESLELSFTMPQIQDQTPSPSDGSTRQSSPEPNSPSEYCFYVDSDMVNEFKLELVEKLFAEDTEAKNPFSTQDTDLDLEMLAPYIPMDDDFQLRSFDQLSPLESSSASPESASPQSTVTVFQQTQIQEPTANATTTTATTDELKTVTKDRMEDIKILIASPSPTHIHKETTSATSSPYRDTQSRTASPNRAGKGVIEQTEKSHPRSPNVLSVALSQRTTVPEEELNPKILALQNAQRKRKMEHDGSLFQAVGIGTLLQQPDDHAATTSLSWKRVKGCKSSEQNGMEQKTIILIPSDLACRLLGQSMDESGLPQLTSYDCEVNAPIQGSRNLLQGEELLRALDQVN
UniProt P14618: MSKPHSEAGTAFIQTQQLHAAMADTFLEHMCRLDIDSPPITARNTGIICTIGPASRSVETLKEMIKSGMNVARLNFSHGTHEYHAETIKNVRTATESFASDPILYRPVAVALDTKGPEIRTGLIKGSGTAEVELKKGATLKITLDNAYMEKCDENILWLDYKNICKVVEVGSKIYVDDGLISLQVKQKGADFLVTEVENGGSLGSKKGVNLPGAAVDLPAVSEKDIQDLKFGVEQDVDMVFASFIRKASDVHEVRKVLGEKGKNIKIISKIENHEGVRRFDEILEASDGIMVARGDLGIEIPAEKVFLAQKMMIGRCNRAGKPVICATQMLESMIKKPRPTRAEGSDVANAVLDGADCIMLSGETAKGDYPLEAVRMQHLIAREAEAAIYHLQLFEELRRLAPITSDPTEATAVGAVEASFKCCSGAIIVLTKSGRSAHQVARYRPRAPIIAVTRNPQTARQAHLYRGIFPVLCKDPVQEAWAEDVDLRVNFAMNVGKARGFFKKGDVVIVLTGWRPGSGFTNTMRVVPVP
UniProt O00629: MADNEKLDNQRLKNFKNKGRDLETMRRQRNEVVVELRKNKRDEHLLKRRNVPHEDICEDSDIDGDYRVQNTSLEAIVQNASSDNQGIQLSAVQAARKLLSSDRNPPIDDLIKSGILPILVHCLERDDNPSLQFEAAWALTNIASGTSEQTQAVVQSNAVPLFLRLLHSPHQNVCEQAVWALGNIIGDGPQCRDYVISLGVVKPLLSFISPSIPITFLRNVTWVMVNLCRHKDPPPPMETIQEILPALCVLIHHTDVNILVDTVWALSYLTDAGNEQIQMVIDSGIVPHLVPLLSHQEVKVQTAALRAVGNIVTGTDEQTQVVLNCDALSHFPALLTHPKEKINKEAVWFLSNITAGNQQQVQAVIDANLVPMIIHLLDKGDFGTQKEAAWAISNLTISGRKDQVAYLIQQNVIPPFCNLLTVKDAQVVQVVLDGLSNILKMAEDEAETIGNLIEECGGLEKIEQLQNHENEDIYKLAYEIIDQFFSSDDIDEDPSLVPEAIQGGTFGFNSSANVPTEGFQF

How the values were obtained:
Flag-HIF-1α WT [1] = target: Flag-HIF-1α WT (UniProt Q16665); experiment: co-IP; HEK-293T cells transfected with Flag-HIF-1α WT or C800S, with or without DMF; co-IP and western blot for p300 and PKM2 (Fig. 5G, 5I); which protein was precipitated not given
Flag-HIF-1α C800S mutant [2] = target: Flag-HIF-1α C800S mutant (UniProt Q16665); experiment: as above
Flag-HIF-1α WT [3] = target: Flag-HIF-1α WT (UniProt Q16665); experiment: co-IP; RCC4 cells with Flag-HIF-1α WT or C800S (importins transfected in Fig. 5B), with or without DMF or FHIN1; co-IP and western blot for importin α3 (Fig. 5B, 5J); which protein was precipitated not given
Flag-HIF-1α C800S mutant [4] = target: Flag-HIF-1α C800S mutant (UniProt Q16665); experiment: as above

Substance	binding (Flag-HIF-1α WT [1])	binding (Flag-HIF-1α C800S mutant [2])	binding (Flag-HIF-1α WT [3])	binding (Flag-HIF-1α C800S mutant [4])
PKM2 (from UniProt P14618 1-531)	binds	binds	–	–
importin α3 (from UniProt O00629 1-521)	–	–	binds	binds
